Here are results for five molecules from publication PMC6400558 (2019).

Changes are numbered by the printed parent chain. Names may count otherwise. No constants are given. Whether binding was seen depends on the method and setting. In cells and extracts the contact can be indirect. For part of these data: Binding can be weak; no strength is given. For part of these data: Where a sequence is shown, tags or fusion partners need not be part of it.

The target of experiment [1] is T1, Hook2 (endogenous) (human (endogenous in HEK293T)) (UniProt Q96ED9).
T1 sequence: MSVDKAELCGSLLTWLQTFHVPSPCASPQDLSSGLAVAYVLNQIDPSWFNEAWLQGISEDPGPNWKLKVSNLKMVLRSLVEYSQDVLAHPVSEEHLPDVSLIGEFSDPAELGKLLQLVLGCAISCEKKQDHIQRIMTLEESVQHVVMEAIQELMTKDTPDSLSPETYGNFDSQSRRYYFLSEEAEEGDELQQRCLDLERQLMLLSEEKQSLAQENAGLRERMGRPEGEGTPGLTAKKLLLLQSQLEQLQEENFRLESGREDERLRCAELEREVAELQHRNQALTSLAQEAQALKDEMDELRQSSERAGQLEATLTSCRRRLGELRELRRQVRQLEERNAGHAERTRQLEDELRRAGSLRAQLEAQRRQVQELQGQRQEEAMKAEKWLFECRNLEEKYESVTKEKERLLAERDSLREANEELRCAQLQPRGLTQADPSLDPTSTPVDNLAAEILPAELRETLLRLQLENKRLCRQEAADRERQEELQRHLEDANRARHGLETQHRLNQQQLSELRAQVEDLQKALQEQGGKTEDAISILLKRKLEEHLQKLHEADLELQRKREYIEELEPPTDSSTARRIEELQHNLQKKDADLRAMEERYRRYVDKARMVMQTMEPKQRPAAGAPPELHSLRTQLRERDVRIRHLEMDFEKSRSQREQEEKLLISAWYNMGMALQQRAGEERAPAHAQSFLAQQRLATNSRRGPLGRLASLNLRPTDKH
Kind of experiment: co-IP; endogenous proteins; HEK293T lysates in TAP lysis buffer (20 mM Tris-HCl pH 7.4, 150 mM NaCl, 0.5% NP-40) with antibody on protein-A/G beads, 3 h, 4°C; cells asynchronous or synchronized (G2, prometaphase, metaphase/anaphase, cytokinesis), with control or other siRNAs or Hook2 plasmids; immunoblot. (In general: Immunoblotting shows a protein as a band on a membrane.)

In experiment [2] the target is T2, mitotic kinesin-like protein 1 (MKLP1) (human (endogenous in HEK293T)) (UniProt Q02241).
T2 sequence: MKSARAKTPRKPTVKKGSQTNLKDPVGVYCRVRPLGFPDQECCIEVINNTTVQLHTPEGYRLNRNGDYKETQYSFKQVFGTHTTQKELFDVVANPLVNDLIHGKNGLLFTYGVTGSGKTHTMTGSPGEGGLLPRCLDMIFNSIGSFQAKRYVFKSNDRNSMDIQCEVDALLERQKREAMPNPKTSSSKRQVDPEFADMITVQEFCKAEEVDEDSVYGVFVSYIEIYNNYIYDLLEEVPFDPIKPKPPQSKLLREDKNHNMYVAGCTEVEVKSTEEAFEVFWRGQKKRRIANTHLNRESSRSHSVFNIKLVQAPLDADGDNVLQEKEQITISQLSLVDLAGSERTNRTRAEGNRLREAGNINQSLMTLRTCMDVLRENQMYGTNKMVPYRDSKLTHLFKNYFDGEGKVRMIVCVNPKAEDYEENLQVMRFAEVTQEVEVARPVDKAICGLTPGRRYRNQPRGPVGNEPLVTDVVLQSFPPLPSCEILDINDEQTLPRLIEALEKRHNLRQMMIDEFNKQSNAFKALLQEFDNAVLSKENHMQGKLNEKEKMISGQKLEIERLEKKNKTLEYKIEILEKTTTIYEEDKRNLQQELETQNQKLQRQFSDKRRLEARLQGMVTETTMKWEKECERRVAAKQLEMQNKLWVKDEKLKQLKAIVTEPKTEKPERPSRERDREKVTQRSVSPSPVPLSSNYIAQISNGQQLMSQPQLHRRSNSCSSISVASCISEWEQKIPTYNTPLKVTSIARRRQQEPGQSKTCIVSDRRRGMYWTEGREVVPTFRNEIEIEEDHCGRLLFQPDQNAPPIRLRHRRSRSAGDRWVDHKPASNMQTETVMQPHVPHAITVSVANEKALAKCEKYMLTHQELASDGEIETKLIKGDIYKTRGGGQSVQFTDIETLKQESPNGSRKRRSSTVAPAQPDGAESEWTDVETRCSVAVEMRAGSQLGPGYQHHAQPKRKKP
Described as above.

Experiment [3] deals with T3, MBP-tagged Hook2 N427 I150A (human) (UniProt Q96ED9).
T3 sequence: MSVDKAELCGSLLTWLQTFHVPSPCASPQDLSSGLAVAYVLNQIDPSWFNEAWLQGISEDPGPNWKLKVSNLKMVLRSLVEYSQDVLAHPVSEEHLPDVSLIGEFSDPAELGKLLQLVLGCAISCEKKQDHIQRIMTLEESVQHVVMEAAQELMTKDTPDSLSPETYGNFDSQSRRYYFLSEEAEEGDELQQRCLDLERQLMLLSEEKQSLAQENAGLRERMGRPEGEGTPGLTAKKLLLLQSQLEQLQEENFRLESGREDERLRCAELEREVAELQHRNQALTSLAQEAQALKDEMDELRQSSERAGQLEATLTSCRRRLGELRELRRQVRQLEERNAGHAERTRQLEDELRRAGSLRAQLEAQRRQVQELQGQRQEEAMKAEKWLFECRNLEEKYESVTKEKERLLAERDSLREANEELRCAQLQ
Kind of experiment: pull-down; MBP-tagged Hook2 N427 (WT or mutants) on amylose beads incubated with whole-cell lysate of HEK293T cells (asynchronous, or harvested in cytokinesis for MKLP1), 4°C, 3 h, 20 mM Hepes pH 7.4, 350 mM NaCl, 1 mM DTT, 2 mM MgCl2, 0.1% Triton X-100, 2 mg/ml BSA; immunoblot; only the target purified.

The target of experiment [4] is T4, MBP-tagged Hook2 N427 Q143A (human) (UniProt Q96ED9).
T4 sequence: T3 sequence with Q143A, A150I
The experiment is described as above.

Experiment [5] deals with T5, MBP-tagged Hook2 Hook+CC1 (N427) WT (human) (UniProt Q96ED9).
T5 sequence: T3 sequence with A150I
The description is as above.

Experiment [6] has as its target dynein intermediate chain (DIC) (human (endogenous in HEK293T)). Kind of experiment: co-IP; endogenous proteins; HEK293T lysates in TAP lysis buffer (20 mM Tris-HCl pH 7.4, 150 mM NaCl, 0.5% NP-40) with antibody on protein-A/G beads, 3 h, 4°C; cells asynchronous or synchronized (G2, prometaphase, metaphase/anaphase, cytokinesis), with control or other siRNAs or Hook2 plasmids; immunoblot.

Experiment [7] shares this target. Kind of experiment: co-IP; lysates of HEK293T cells transfected with HA-tagged Hook2 (WT, Q143A, I150A; also siRNA-resistant forms in Hook2 siRNA-treated cells); IP with anti-DIC or anti-p150^glued, immunoblot anti-HA.

As for “dynein intermediate chain (DIC) (human (endogenous in HEK293T))”, the binding result in experiment [1] was “binds”; in experiment [2] it was “binds”; in experiment [3] it was “no binding”; in experiment [4], “no binding”; in experiment [5] it was “binds”.

B1: Hook2 (endogenous) (protein, UniProt Q96ED9 1-719)
chain: T1 sequence
Turning to B1, the binding result in experiment [6] was “binds”.

B2: HA-tagged Hook2 WT (protein, UniProt Q96ED9 1-719)
chain: T1 sequence
As for B2, in experiment [7], the binding entry is “binds”.

B3: HA-tagged Hook2 I150A (protein, UniProt Q96ED9 1-719)
chain: T1 sequence with I150A
As for B3, in experiment [7], the binding entry is recorded as “no binding”.

B4: HA-tagged Hook2 Q143A (protein, UniProt Q96ED9 1-719)
chain: T1 sequence with Q143A
For the molecule B4, the binding entry in experiment [7] was “no binding”.
